Reference: PubChem BioAssay AID1259425 (University of Nebraska Medical Center, 2018)
Shown is one part, drawn at random, of about 14,000 reagents tested. Some reagents were tested in more than one well and are listed for each. Not all columns of the deposit are shown. Not given: the time to read-out.

- Test: 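Seek colon cancer weak points whose silencing resembles KSR1 loss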 (primary screen)
- Cells: HCT116 human colon cancer cells
- Reagent: siRNA pool against human genes, 50 nM siRNA
- Measurement: 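mRNA of six signature genes measured together by branched-DNA assay after 50 nM siRNA pool, blank removed, divided by geometric mean of two housekeeping genes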
- Reading the numbers: BNIP3L mRNA: higher = more BNIP3L transcript after knockdown; NDRG1 mRNA: higher = more NDRG1 transcript after knockdown

COL10A1 (collagen type X alpha 1 chain)
- BNIP3L mRNA, set 1: 0.417
- NDRG1 mRNA, set 1: 1

CASP6 (caspase 6)
- BNIP3L mRNA, set 1: 0.0807
- NDRG1 mRNA, set 1: 0.101

RASD1 (ras related dexamethasone induced 1)
- BNIP3L mRNA, set 1: 0.0884
- NDRG1 mRNA, set 1: 0.155

TREM1 (triggering receptor expressed on myeloid cells 1)
- BNIP3L mRNA, set 1: 0.085
- NDRG1 mRNA, set 1: 0.602

PVALB (parvalbumin)
- BNIP3L mRNA, set 1: 0.0667
- NDRG1 mRNA, set 1: 0.5

RPA1 (replication protein A1)
- BNIP3L mRNA, set 1: 0.137
- NDRG1 mRNA, set 1: 0.555

CDA (cytidine deaminase)
- BNIP3L mRNA, set 1: 0.0916
- NDRG1 mRNA, set 1: 0.187

PHF7 (PHD finger protein 7)
- BNIP3L mRNA, set 1: 0.102
- NDRG1 mRNA, set 1: 0.176

GRAMD2B (GRAM domain containing 2B)
- BNIP3L mRNA, set 1: 0.147
- NDRG1 mRNA, set 1: 0.774

MED12 (mediator complex subunit 12)
- BNIP3L mRNA, set 1: 0.141
- NDRG1 mRNA, set 1: 0.314

LSM1 (LSM1 homolog, mRNA degradation associated)
- BNIP3L mRNA, set 1: 0.0735
- NDRG1 mRNA, set 1: 0.181

COL2A1 (collagen type II alpha 1 chain)
- BNIP3L mRNA, set 1: 0.293
- NDRG1 mRNA, set 1: 0.256

ZNF224 (zinc finger protein 224)
- BNIP3L mRNA, set 1: 0.116
- NDRG1 mRNA, set 1: 0.108

ZNF224 (zinc finger protein 224)
- BNIP3L mRNA, set 1: 0.115
- NDRG1 mRNA, set 1: 0.156

ZNF93 (zinc finger protein 93)
- BNIP3L mRNA, set 1: 0.129
- NDRG1 mRNA, set 1: 0.233

ANKRD36B (ankyrin repeat domain 36B)
- BNIP3L mRNA, set 1: 0.0522
- NDRG1 mRNA, set 1: 0.101

ENTPD5 (ectonucleoside triphosphate diphosphohydrolase 5)
- BNIP3L mRNA, set 1: 0.112
- NDRG1 mRNA, set 1: 0.248

DCAF12 (DDB1 and CUL4 associated factor 12)
- BNIP3L mRNA, set 1: 0.128
- NDRG1 mRNA, set 1: 0.174

ING2 (inhibitor of growth family member 2)
- BNIP3L mRNA, set 1: 0.153
- NDRG1 mRNA, set 1: 0.397

RHOU (ras homolog family member U)
- BNIP3L mRNA, set 1: 0.139
- NDRG1 mRNA, set 1: 0.172

RNF31 (ring finger protein 31)
- BNIP3L mRNA, set 1: 0.0706
- NDRG1 mRNA, set 1: 0.109

EFCAB6 (EF-hand calcium binding domain 6)
- BNIP3L mRNA, set 1: 0.0987
- NDRG1 mRNA, set 1: 0.137

CCDC134 (coiled-coil domain containing 134)
- BNIP3L mRNA, set 1: 0.127
- NDRG1 mRNA, set 1: 0.142

GABPA (GA binding protein transcription factor subunit alpha)
- BNIP3L mRNA, set 1: 0.0772
- NDRG1 mRNA, set 1: 0.0945

ERMARD (ER membrane associated RNA degradation)
- BNIP3L mRNA, set 1: 0.0711
- NDRG1 mRNA, set 1: 0.113

CNPY2 (canopy FGF signaling regulator 2)
- BNIP3L mRNA, set 1: 0.104
- NDRG1 mRNA, set 1: 0.203

WTAP (WT1 associated protein)
- BNIP3L mRNA, set 1: 0.189
- NDRG1 mRNA, set 1: 1.7

GABRB3 (gamma-aminobutyric acid type A receptor subunit beta3)
- BNIP3L mRNA, set 1: 0.05
- NDRG1 mRNA, set 1: 0.486

4 consecutive records from above, for reference:
ING2 (inhibitor of growth family member 2)
- BNIP3L mRNA, set 1: 0.153
- NDRG1 mRNA, set 1: 0.397

RHOU (ras homolog family member U)
- BNIP3L mRNA, set 1: 0.139
- NDRG1 mRNA, set 1: 0.172

RNF31 (ring finger protein 31)
- BNIP3L mRNA, set 1: 0.0706
- NDRG1 mRNA, set 1: 0.109

EFCAB6 (EF-hand calcium binding domain 6)
- BNIP3L mRNA, set 1: 0.0987
- NDRG1 mRNA, set 1: 0.137
